# Data as given in publication PMC7819943, “Rice protein-binding microarrays: a tool to detect cis-acting elements near promoter regions in rice”.
# This is one part of the list.
# Target: T1, OsSMF1 (Oryza sativa, UniProt Q6ZLB0 1-436)
# T1 sequence: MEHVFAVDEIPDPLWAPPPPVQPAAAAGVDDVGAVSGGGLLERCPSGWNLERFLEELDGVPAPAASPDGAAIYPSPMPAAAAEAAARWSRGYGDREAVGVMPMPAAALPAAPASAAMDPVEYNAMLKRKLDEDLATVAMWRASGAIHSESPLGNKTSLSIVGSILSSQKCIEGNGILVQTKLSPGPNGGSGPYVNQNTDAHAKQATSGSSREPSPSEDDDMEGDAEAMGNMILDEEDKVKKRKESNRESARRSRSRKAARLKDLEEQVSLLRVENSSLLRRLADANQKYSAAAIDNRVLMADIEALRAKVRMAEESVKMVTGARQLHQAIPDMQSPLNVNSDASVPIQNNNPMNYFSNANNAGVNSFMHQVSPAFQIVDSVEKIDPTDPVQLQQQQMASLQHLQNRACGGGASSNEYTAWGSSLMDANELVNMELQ
# Experiment: protein-binding microarray (RPBM); PBS, 2% BSA, 51.3 ng/ul salmon testes DNA, 50 uM zinc acetate, 200 nM TF, 25 C, 1 h; high values mean tight binding
# Conditions: protein: recombinant; tags: N-terminal polyhistidine and DsRed monomer fusion (pET32a); chain copies: 2; label: CyDye5-dUTP incorporated in the synthesized complementary strand; 3' TTTTT single-stranded linker to array surface; dsDNA, one strand shown
# Outline: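 In PBS with 2% BSA, salmon testes DNA and 50 µM zinc acetate, 200 nM protein was incubated on a custom Agilent array at 25 °C for 1 h and then washed off. The array had been made double-stranded by primer extension with Cy5-dUTP and blocked with 2% BSA. The proteins were transcription factors fused N-terminally to polyhistidine and DsRed, expressed in E. coli BL21-CodonPlus and purified on Ni–NTA. The binding signal is per-feature fluorescence intensity (arbitrary units) from an Axon 4000B scanner.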
row,Sequence,binding signal
1,GGCCGTCCAGCGTAATTATGCACTCCTGTCCACTCGTCCACGGAGTCACCTAGTGCAG,3330 fluorescence intensity (a.u.)
2,ACTAGAATTGAGTTGGATTGTGAGCTGTACGTGGACTGATCGGAGTCACCTAGTGCAG,6410 fluorescence intensity (a.u.)
3,TGCTAGGAGCTGAAACAAGCCGTCGTCTCCTTCCTTCTGTCGGAGTCACCTAGTGCAG,5180 fluorescence intensity (a.u.)
4,CCGTTGTTGGTCGGAGCATCACCTGGGCGGTGTTTCCCTGCGGAGTCACCTAGTGCAG,15800 fluorescence intensity (a.u.)
5,AAGGTTTGAATCCTCCTACCTACGCATGCTTCGGAATCCTCGGAGTCACCTAGTGCAG,3300 fluorescence intensity (a.u.)
6,TCGGCGTTCGCGTAGAATCACACGTGCCGCGCGTTCCCTGCGGAGTCACCTAGTGCAG,3880 fluorescence intensity (a.u.)
7,GGCCCCACCTGTCAGTGAGACGACCATCGCGGTAACCGCACGGAGTCACCTAGTGCAG,19100 fluorescence intensity (a.u.)
8,CATAAACGACGTGGGAGTATTATTATTCAACGCTGAGTCACGGAGTCACCTAGTGCAG,5060 fluorescence intensity (a.u.)
9,GGATGGGGCGCAGCGCAATGCAAAACTGCAGATGCATGCACGGAGTCACCTAGTGCAG,3210 fluorescence intensity (a.u.)
10,GCACGGCACGGCCCGGCCTAAATGAGCCGTGCCTAATCGTCGGAGTCACCTAGTGCAG,16800 fluorescence intensity (a.u.)
11,TGAGAAATGTAAATATGTTTACGAGAAATGACTAGTAGTTCGGAGTCACCTAGTGCAG,22100 fluorescence intensity (a.u.)
12,CCACCACCACCACCACCACCACCTCCCCTCTCCCATTCGACGGAGTCACCTAGTGCAG,3500 fluorescence intensity (a.u.)
13,CAACATTAGCAATTAAAATTGCGGGTTATTTGTAAAAGTCCGGAGTCACCTAGTGCAG,32000 fluorescence intensity (a.u.)
14,CAACATTTCTGAGTTGGCGCATCACTAATTTTGGGAATGACGGAGTCACCTAGTGCAG,3960 fluorescence intensity (a.u.)
15,GACGGCGCGGTCGACCCGCCGTCTGCCACGTCAGCTTGCCCGGAGTCACCTAGTGCAG,27400 fluorescence intensity (a.u.)
16,GCAGGTAGAGAGAGAGATGGCGGACGCTGATGACATCCAGCGGAGTCACCTAGTGCAG,3680 fluorescence intensity (a.u.)
17,TAACTAATTACACAGATTGCGTGTAAATTACGAGACAAATCGGAGTCACCTAGTGCAG,3240 fluorescence intensity (a.u.)
18,AGCCTCCAGGCATTGGCGCGCACAGAGGCAGACACGTTGGCGGAGTCACCTAGTGCAG,5450 fluorescence intensity (a.u.)
19,GGAATGCAGCGCGAGAAGCCACGACGCGTAGTAGCTGGAGCGGAGTCACCTAGTGCAG,3220 fluorescence intensity (a.u.)
20,GTACATATATGAATTGTGTGCGATAGCACGGCAATGATGACGGAGTCACCTAGTGCAG,3170 fluorescence intensity (a.u.)
21,TGAAGCTTCTCCGCGCGAAGGAGGCGGAGGTGGCGTCCGTCGGAGTCACCTAGTGCAG,3270 fluorescence intensity (a.u.)

row,Sequence,binding signal
1,AATGTACATAACACAAGCACATCTTGTATGACAAGGATTCCGGAGTCACCTAGTGCAG,3930 fluorescence intensity (a.u.)
2,CGACGCCTCGTCCTCGTCCGGTGCCTTCCAGCCTTGCGCACGGAGTCACCTAGTGCAG,25300 fluorescence intensity (a.u.)
3,CGTATGTATACCATATCGATGTGTGACGTATATCGAAGGGCGGAGTCACCTAGTGCAG,3720 fluorescence intensity (a.u.)
4,AAGCTGCTGAGTTCACAGGACGTGTGAGTCAGCAAAGAAGCGGAGTCACCTAGTGCAG,9980 fluorescence intensity (a.u.)
5,TTCGGCGCCGTGGCGTCAGTCCGCCCCTACCGCCGCTCGACGGAGTCACCTAGTGCAG,4400 fluorescence intensity (a.u.)
6,ATATACATATACATATATATACACACACACGTATACATAGCGGAGTCACCTAGTGCAG,4840 fluorescence intensity (a.u.)
7,TGTCCCATCCGATACGACATGTCAGTCTCACTCCTCTCTTCGGAGTCACCTAGTGCAG,3360 fluorescence intensity (a.u.)
8,AGAGGAGATGACGTTGTGCTTGCGCTCCCTGCACCGCCTTCGGAGTCACCTAGTGCAG,3970 fluorescence intensity (a.u.)
9,AAACCGCCACGTCCCCTCTCCCGAAGCTCCCCACGGCCAGCGGAGTCACCTAGTGCAG,8240 fluorescence intensity (a.u.)
10,TTTGCGTGCGTGTGTTCATAGCGGTGAGTGCGCGTGCGTTCGGAGTCACCTAGTGCAG,6190 fluorescence intensity (a.u.)
11,TCCAAGCCGTCCACTCCCCTCCGATCCAACGGTCCAAACCCGGAGTCACCTAGTGCAG,21800 fluorescence intensity (a.u.)
12,CTCCGTCGCTGACTGCAACCTCCACCCACACGGCACCCATCGGAGTCACCTAGTGCAG,3660 fluorescence intensity (a.u.)
13,ATGCTATTATATAAGAGAAAATATAATGATGCTGGCCGTGCGGAGTCACCTAGTGCAG,3240 fluorescence intensity (a.u.)
14,GCCTGATGTGTTGATGTGCTGCTGTTCAGACTTTGAACCTCGGAGTCACCTAGTGCAG,3330 fluorescence intensity (a.u.)
15,AGAGTGTTCAATTGTATACAGTTACCAATACAGCTAGTGTCGGAGTCACCTAGTGCAG,29700 fluorescence intensity (a.u.)
16,GAGCGGTTGTTTGCTTAGTTGTATCAATTAGGTCTACACGCGGAGTCACCTAGTGCAG,3170 fluorescence intensity (a.u.)
17,GGTGAATGATCAAGATACGTATGGATTGCATGTTTGCTCACGGAGTCACCTAGTGCAG,3420 fluorescence intensity (a.u.)
18,TTTTCTTCCCTTCTCACTCCTCCACGTCAGATTTGGCTGACGGAGTCACCTAGTGCAG,20600 fluorescence intensity (a.u.)
19,TTATATAATTGTCATGATGAATTACTGCCTTGTCATCTGACGGAGTCACCTAGTGCAG,23600 fluorescence intensity (a.u.)
20,TAACGACCAATCGAGCCTACTAGTATAAATTGTACCTCGTCGGAGTCACCTAGTGCAG,31400 fluorescence intensity (a.u.)
21,TCCCTTCGTCGTTCCGTCTGCCACGTACACCTTCCATCTACGGAGTCACCTAGTGCAG,10800 fluorescence intensity (a.u.)

# Single entries from the entries so far:
# GACGGCGCGGTCGACCCGCCGTCTGCCACGTCAGCTTGCCCGGAGTCACCTAGTGCAG | binding signal: 27400 fluorescence intensity (a.u.)
# CAACATTTCTGAGTTGGCGCATCACTAATTTTGGGAATGACGGAGTCACCTAGTGCAG | binding signal: 3960 fluorescence intensity (a.u.)
# TGAGAAATGTAAATATGTTTACGAGAAATGACTAGTAGTTCGGAGTCACCTAGTGCAG | binding signal: 22100 fluorescence intensity (a.u.)
